Target: T1, neurofilaments (assembled, purified from mouse brain and spinal cord at 4 C) (mouse, UniProt P08551 2-543; P08553 2-848; P19246 1-1090)
T1 construct: Native filament preparation (fractions P2/P3); also called NF; NFs
Assay: co-purification; co-aggregation in NFHLacZ neurons

Protein sequences, listed by entry. Tags and fused reporters are not part of them. Residues count along the entry.
UniProt P08551, 2-543 limits assumed, chain 1 of 3: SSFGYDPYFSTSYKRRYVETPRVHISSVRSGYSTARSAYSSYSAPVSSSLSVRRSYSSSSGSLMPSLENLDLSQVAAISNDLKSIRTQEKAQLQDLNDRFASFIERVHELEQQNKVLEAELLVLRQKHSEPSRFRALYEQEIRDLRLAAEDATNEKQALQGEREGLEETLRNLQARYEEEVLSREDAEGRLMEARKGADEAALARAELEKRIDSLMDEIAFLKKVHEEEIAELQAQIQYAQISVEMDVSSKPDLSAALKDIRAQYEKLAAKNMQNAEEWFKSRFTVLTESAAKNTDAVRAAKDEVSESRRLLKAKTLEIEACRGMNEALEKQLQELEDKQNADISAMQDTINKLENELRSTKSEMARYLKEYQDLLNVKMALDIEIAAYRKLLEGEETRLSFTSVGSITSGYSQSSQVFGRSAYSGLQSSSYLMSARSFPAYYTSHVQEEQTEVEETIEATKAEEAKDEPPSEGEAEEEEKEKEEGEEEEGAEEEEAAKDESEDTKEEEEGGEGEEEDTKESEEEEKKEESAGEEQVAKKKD
neurofilaments (assembled, purified from mouse brain and spinal cord at 4 C), UniProt P08553, 2-848 limits assumed, chain 2 of 3: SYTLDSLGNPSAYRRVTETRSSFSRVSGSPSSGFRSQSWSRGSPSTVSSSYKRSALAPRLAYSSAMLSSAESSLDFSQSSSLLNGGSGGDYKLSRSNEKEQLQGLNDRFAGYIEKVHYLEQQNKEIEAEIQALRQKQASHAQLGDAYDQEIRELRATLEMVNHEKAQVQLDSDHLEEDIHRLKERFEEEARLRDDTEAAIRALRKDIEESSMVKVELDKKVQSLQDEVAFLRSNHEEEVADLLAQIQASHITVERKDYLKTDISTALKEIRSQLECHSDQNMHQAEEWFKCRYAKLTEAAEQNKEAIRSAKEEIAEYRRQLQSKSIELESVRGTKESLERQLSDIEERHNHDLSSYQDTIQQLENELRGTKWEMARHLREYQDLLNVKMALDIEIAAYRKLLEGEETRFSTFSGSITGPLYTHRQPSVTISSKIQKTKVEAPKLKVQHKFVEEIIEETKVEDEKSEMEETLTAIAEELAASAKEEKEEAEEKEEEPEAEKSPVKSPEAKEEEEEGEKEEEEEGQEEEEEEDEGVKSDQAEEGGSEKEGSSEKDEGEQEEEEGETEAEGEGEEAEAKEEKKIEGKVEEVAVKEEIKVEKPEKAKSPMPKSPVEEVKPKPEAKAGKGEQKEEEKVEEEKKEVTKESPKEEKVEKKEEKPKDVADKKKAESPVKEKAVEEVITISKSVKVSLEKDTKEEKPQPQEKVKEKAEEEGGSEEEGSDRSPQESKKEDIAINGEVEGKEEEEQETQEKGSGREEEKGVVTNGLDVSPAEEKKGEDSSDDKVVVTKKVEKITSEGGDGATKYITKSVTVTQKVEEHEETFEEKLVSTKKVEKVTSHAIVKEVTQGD
neurofilaments (assembled, purified from mouse brain and spinal cord at 4 C), UniProt P19246, whole entry, chain 3 of 3: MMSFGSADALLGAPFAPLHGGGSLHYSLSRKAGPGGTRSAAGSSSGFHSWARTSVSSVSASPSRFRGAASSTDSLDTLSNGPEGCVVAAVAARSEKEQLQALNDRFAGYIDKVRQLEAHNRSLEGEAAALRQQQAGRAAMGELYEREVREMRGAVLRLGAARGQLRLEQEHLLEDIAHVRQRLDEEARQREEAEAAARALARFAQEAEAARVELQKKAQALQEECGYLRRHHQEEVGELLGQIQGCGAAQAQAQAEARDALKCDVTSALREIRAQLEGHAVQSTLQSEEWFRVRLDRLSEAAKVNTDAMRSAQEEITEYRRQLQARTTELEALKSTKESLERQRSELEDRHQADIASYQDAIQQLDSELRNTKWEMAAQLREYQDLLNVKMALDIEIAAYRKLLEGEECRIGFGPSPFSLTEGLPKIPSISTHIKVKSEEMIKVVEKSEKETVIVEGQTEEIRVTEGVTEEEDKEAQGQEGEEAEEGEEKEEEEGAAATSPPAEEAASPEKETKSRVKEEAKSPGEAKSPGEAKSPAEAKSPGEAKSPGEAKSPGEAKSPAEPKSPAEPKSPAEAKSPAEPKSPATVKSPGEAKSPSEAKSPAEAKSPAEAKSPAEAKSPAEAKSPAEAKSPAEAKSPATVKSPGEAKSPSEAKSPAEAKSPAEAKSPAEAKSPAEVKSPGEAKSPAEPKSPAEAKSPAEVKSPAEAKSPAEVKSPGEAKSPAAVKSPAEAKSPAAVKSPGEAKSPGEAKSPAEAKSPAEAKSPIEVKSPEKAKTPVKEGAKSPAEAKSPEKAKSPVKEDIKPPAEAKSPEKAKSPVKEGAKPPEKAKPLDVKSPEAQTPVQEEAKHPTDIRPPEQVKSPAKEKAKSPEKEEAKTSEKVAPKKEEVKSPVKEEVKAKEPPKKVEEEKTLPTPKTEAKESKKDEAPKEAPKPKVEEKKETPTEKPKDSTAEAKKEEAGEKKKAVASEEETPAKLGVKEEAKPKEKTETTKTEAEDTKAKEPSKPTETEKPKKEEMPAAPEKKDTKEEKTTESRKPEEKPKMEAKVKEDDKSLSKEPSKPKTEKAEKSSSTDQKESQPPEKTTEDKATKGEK

B1: synapsin II (other, mouse, UniProt Q64332 1-586, looked up)
chain: MMNFLRRRLSDSSFIANLPNGYMTDLQRPEPQQPPPAPGPGAATASAATSAASPGPERRPPPAQAPAPQPAPQPAPTPSVGSSFFSSLSQAVKQTAASAGLVDAPAPSAASRKAKVLLVVDEPHTDWAKCFRGKKILGDYDIKVEQAEFSELNLVAHADGTYAVDMQVLRNGTKVVRSFRPDFVLIRQHAFGMAENEDFRHLVIGMQYAGLPSINSLESIYNFCDKPWVFAQMVAIFKTLGGEKFPLIEQTYYPNHREMLTLPTFPVVVKIGHAHSGMGKVKVENHYDFQDIASVVALTQTYATAEPFIDAKYDIRVQKIGNNYKAYMRTSISGNWKTNTGSAMLEQIAMSDRYKLWVDACSEMFGGLDICAVKAVHGKDGKDYIFEVMDCSMPLIGEHQVEDRQLITDLVISKMNQLLSRTPALSPQRPLTTQQPQSGTLKEPDSSKTPPQRPPPQGGPGQPQGMQPPGKVLPPRRLPSGPSLPSSSSSSSSSSSSSSAPQRPGGPTTTHGDASSSSNSLAEAQAPQAAPAQKPQPHPQLNKSQSLTNAFSFSESSFFRSSANEDEAKAETIRSLRKSFASLFSD
notes: Printed together with synapsin I as 'synapsin I and II'
- binding result: no binding
